According to PMC9041338:
These are yes or no findings as the source states them, for the method shown.

Target: T1, Yap8 (S. cerevisiae) (UniProt Q06596)
T1 sequence: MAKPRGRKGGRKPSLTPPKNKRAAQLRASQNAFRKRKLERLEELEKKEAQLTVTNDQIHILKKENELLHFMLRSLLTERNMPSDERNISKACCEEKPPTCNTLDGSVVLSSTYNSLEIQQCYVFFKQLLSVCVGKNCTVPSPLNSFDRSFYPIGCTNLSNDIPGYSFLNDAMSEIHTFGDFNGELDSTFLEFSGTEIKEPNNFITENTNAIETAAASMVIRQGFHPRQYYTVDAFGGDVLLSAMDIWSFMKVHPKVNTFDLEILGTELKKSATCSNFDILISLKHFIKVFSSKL
Test: two-hybrid; dedicated yeast two-hybrid assay; full-length Yap8 as bait, full-length Etp1 as prey; told only in the discussion, no methods or figure

binding: no binding
B1: Etp1 (protein, UniProt P38748 1-585)
chain: MDQFEYIITLEFGNQNQVESAYQIFKSIPKKLKAKSIGEESIKSNNQDWQDWRVCDLEIDMITDFKNQTSKEEESDLITSQYLGHGIIRLFKLSNANNTLNEKEILTIPGDDTMICILFVPTYFTVHDLLHFYIGDDIVNKQVSNFRILRNQQKGMGFNFTVLIKFRNALDAKNFKEEFNGKSFSRMDPETCHVISVKEIVFQKKLFQRPAANEDFPYLLTDPFTVKKKKELVKVELPTCPVCLERMDSETTGLVTIPCQHTFHCQCLNKWKNSRCPVCRHSSLRLSRESLLKQAGDSAHCATCGSTDNLWICLICGNVGCGRYNSKHAIKHYEETLHCFAMDIRTQRVWDYAGDNYVHRLVQNEVDGKLVEVGGSGDDDNNDIGNSDELQNVVYGNRSKNGEKSNSNKKDGELAANFLRHREYHLEYVQVLISQLESQREYYELKLQEKDQTASDSSNVESLKKSMEDLKLQFQVTQKEWQKREMAQKSKLEEDMLVIEGLQANLDHLSKKQEQLERENKALEESKQDLEEQVKDLMFYLDSQEKFKDADESVKEGTILIQQPHGAAQASKSKKKRNKNKKAGK
